Source: the supplement of paper PMC12823440, “Inhibitors supercharge kinase turnover through native proteolytic circuits” (Nature, 2025)
Structures can show the parent of a compound that is named as a salt. This is one part of the list. Hit calls seldom repeat between salt and free forms of one compound.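 Kinases were expressed as nanoluciferase fusions in K562 cells and luminescence was read every 4 h between 2 and 18 h as percent of control, DMSO set to 100% and a positive control to 0%. A time point counts as decreased when the signal drops significantly (2 sigma). The hit call is the authors' own, does not follow from the count of time points alone, and its rule is not shown.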

Chains of the proteins cited; added tags and fusions are not shown. Lines headed by an entry give the natural chain unless they say otherwise; changes in a name come on top.
UniProt P28482, whole entry: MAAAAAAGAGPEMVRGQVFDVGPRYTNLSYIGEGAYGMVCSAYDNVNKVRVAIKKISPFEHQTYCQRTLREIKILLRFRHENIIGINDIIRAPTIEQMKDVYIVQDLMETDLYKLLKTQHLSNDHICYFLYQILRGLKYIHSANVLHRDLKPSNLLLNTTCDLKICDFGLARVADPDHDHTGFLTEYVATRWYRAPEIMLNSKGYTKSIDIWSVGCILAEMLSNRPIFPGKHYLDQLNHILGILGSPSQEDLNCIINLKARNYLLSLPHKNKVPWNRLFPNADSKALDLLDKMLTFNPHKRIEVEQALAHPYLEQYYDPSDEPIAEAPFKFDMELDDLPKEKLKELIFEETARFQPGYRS
UniProt P31152, whole entry: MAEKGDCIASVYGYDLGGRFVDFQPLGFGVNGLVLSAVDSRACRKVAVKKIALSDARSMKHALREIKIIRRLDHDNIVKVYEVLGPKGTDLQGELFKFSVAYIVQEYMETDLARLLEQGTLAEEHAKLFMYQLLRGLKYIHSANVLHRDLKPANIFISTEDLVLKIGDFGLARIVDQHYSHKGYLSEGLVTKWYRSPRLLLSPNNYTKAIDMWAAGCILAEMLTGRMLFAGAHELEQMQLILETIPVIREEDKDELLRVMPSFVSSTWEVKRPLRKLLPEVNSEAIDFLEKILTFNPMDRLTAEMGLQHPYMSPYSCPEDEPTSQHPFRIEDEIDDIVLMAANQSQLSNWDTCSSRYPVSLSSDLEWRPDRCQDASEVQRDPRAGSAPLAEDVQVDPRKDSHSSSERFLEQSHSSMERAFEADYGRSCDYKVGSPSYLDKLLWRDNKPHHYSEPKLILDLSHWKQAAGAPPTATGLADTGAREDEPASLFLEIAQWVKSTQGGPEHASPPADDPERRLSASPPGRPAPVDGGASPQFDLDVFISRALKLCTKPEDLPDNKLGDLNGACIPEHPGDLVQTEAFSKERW
UniProt P49137, whole entry, looked up: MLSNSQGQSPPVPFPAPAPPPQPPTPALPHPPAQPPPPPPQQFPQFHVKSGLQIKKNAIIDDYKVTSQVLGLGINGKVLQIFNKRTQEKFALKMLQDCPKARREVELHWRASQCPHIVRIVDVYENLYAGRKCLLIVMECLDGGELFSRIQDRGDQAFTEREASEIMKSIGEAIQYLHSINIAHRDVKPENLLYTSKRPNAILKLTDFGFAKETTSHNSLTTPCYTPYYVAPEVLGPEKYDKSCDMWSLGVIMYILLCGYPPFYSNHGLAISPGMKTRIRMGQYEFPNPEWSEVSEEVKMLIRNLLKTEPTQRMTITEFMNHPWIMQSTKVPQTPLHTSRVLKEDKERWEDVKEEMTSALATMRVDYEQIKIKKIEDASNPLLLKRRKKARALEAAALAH
UniProt Q16288, whole entry, looked up: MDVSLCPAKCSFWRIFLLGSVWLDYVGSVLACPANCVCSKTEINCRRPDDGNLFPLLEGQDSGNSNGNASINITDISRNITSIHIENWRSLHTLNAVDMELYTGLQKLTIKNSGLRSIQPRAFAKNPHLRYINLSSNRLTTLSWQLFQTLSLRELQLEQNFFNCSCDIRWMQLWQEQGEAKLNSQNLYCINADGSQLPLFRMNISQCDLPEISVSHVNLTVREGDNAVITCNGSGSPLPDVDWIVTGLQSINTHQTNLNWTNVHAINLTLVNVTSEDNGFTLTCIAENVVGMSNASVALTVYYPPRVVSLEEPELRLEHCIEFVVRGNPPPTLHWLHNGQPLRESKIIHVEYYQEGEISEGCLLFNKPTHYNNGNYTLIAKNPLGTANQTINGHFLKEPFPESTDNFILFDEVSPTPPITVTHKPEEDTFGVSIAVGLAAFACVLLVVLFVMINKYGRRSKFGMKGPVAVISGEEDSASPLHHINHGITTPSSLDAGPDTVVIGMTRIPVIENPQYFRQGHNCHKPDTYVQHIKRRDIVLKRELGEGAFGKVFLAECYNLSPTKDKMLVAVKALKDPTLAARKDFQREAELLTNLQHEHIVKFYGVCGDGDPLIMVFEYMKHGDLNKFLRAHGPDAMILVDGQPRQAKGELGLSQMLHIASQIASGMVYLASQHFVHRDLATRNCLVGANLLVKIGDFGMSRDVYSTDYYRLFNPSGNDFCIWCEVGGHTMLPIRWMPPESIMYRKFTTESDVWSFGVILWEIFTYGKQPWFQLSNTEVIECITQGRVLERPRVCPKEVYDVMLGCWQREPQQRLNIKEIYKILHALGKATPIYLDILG
UniProt P42356, whole entry, looked up: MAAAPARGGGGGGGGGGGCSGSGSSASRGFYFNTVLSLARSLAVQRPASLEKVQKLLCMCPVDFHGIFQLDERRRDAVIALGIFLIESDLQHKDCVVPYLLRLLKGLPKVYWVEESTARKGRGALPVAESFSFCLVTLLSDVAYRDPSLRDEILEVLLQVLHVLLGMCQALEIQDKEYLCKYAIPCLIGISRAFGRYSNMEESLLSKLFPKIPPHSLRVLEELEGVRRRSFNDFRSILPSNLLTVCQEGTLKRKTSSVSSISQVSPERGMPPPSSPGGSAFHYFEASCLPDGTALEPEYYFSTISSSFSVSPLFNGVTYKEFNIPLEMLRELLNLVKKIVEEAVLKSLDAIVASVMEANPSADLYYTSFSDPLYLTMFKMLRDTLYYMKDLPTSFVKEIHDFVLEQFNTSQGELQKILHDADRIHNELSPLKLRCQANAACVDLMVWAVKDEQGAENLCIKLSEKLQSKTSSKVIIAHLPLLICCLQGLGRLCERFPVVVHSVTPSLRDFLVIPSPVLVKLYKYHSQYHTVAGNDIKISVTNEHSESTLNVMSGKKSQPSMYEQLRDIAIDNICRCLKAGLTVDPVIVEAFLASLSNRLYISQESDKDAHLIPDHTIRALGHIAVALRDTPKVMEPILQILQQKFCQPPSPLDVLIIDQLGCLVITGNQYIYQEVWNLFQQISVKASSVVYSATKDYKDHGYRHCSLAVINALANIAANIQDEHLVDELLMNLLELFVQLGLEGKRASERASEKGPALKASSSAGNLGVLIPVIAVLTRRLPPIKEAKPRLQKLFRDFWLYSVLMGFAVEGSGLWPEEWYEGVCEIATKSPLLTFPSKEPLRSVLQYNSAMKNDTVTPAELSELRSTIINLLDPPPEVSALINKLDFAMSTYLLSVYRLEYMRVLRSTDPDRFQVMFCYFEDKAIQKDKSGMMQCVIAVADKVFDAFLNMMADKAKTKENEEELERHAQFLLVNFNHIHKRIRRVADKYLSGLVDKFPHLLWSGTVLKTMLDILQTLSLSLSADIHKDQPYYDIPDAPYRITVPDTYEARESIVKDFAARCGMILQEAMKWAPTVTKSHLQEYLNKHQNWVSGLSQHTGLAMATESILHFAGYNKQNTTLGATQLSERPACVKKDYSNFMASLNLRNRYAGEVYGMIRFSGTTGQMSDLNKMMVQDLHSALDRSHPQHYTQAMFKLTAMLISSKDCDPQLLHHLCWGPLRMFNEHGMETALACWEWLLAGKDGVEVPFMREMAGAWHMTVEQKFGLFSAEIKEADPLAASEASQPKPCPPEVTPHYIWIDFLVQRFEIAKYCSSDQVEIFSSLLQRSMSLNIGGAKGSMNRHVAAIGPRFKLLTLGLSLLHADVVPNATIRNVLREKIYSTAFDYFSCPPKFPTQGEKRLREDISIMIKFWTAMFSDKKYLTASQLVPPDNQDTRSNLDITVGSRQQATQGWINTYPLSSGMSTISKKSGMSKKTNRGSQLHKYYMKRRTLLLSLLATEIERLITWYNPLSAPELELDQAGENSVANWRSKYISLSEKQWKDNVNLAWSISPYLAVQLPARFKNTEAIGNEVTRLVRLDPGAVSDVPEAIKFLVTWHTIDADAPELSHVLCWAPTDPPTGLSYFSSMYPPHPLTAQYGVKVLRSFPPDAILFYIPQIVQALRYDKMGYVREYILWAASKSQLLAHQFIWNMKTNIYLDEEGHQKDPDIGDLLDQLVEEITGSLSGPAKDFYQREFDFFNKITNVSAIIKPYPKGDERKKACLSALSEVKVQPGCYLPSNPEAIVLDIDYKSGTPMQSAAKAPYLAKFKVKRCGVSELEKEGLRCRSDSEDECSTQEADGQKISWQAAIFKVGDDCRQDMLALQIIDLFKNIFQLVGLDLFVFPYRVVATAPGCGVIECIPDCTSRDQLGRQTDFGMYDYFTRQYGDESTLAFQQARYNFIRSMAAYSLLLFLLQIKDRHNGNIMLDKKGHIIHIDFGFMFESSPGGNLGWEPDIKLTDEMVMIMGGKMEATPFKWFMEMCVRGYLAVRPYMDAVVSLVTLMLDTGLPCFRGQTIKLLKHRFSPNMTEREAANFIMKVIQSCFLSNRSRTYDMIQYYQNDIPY
UniProt P53350, whole entry: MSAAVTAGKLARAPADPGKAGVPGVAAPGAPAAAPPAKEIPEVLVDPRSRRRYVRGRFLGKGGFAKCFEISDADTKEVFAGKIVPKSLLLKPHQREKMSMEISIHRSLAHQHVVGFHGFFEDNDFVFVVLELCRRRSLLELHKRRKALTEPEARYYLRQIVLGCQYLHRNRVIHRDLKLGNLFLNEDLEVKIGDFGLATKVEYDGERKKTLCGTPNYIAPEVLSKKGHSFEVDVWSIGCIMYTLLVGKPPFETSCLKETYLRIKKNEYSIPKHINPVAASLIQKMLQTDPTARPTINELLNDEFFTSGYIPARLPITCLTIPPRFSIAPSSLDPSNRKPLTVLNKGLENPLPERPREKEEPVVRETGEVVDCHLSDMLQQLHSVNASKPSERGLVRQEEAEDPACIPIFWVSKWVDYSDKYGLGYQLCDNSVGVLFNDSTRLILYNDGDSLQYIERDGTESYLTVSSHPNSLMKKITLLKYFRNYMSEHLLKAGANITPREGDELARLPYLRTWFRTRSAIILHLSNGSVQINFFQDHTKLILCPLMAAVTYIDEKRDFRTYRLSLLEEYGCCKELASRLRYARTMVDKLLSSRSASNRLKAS
UniProt Q13131: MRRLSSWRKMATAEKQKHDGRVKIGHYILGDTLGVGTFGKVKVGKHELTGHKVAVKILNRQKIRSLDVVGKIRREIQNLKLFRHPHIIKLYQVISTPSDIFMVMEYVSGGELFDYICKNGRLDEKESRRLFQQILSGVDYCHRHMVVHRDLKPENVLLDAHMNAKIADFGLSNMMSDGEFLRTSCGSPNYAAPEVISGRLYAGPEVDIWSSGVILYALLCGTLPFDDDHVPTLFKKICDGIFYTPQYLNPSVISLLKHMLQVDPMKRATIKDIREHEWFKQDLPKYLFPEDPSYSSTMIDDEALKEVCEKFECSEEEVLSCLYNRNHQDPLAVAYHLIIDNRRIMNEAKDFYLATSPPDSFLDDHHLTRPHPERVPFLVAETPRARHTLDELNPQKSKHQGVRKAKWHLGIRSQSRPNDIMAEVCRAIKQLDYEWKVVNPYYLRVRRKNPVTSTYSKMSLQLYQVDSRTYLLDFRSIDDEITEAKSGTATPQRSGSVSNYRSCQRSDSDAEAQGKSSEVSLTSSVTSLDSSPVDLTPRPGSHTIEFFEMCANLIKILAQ
UniProt Q05397, whole entry, looked up: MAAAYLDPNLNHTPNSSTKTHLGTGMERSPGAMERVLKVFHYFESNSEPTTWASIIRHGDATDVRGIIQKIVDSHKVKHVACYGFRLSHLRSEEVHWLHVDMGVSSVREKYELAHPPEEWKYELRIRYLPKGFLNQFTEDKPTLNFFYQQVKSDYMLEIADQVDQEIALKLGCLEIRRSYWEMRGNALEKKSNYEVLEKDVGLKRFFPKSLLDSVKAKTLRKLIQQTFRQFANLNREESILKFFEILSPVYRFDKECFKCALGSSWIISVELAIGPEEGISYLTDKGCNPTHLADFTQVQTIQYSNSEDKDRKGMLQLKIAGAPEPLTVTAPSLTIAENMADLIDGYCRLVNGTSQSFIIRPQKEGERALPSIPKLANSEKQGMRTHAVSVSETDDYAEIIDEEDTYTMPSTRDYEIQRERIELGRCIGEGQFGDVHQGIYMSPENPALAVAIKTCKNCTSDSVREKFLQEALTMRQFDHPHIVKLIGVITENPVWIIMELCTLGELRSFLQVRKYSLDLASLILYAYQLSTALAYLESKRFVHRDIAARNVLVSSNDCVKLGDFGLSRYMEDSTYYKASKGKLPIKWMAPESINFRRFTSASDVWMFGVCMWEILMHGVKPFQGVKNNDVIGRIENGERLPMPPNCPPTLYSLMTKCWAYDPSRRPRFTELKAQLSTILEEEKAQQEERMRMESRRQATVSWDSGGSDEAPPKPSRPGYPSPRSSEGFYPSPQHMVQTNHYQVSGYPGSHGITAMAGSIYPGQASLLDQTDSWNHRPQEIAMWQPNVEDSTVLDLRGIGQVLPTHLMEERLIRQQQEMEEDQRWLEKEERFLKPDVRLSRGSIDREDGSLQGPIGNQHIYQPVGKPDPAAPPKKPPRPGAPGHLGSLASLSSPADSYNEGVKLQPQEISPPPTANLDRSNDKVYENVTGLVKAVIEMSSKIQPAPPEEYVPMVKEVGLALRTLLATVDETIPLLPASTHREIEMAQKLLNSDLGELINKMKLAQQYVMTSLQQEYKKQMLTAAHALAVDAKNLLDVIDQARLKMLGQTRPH

What was measured:
Assay in all cases: kinase-Nluc reporter destabilization hit call (1 = scored as downregulated) (binary); higher = compound decreases kinase abundance
Details in all cases: K562, 2-18 h
MAPK1 = MAPK1 (UniProt P28482)
MAPK4 = MAPK4 (UniProt P31152)
MAPKAPK2 = MAPKAPK2 (UniProt P49137)
MKNK1 = MKNK1 (UniProt Q9BUB5)
NTRK2 = NTRK2 (UniProt Q16620)
NTRK3 = NTRK3 (UniProt Q16288)
PAK4 = PAK4 (UniProt O96013)
PBK = PBK (UniProt Q96KB5)
PDGFRB = PDGFRB (UniProt P09619)
PDK1 = PDK1 (UniProt Q15118)
PDPK1 = PDPK1 (UniProt O15530)
PIK4CA = PIK4CA (UniProt P42356)
PIK4CB = PIK4CB (UniProt Q9UBF8)
PLK1 = PLK1 (UniProt P53350)
PRKAA1 = PRKAA1 (UniProt Q13131)
PRKCA = PRKCA (UniProt P17252)
PTK2 = PTK2 (UniProt Q05397)
PTK2B = PTK2B (UniProt Q14289)
RAF1 = RAF1 (UniProt P04049)
[1] = molecular target: RAF1_S257L (clone: RAF1_mut) (UniProt P04049)

Measured: kinase-Nluc reporter destabilization hit call

CC(C)N(CCC(=O)c1ccc2ccccc2c1)Cc1ccccc1
inactive: MAPK1; 10 µM 0 | MAPK4; 10 µM 0 | MAPKAPK2; 10 µM 0 | MKNK1; 10 µM 0 | NTRK2; 10 µM 0 | NTRK3; 10 µM 0 | PAK4; 10 µM 0 | PBK; 10 µM 0 | PDGFRB; 10 µM 0 | PDK1; 10 µM 0 | PDPK1; 10 µM 0 | PIK4CA; 10 µM 0 | PIK4CB; 10 µM 0 | PLK1; 10 µM 0 | PRKAA1; 10 µM 0 | PRKCA; 10 µM 0 | PTK2; 10 µM 0 | PTK2B; 10 µM 0 | RAF1; 10 µM 0 | [1]; 10 µM 0

COc1ccc(CNC(=O)Nc2ncc([N+](=O)[O-])s2)cc1
inactive: MAPK1; 2.5 µM 0 | MAPK4; 2.5 µM 0 | MAPKAPK2; 2.5 µM 0 | MKNK1; 2.5 µM 0 | NTRK2; 2.5 µM 0 | NTRK3; 2.5 µM 0 | PAK4; 2.5 µM 0 | PBK; 2.5 µM 0 | PDGFRB; 2.5 µM 0 | PDK1; 2.5 µM 0 | PDPK1; 2.5 µM 0 | PIK4CA; 2.5 µM 0 | PIK4CB; 2.5 µM 0 | PLK1; 2.5 µM 0 | PRKAA1; 2.5 µM 0 | PRKCA; 2.5 µM 0 | PTK2; 2.5 µM 0 | PTK2B; 2.5 µM 0 | RAF1; 2.5 µM 0 | [1]; 2.5 µM 0

O=C1Cc2c([nH]c3ccc(Br)cc23)-c2ccccc2N1 [Kenpaullone]
inactive: MAPK1; 10 µM 0 | MAPK4; 10 µM 0 | MAPKAPK2; 10 µM 0 | MKNK1; 10 µM 0 | NTRK2; 10 µM 0 | NTRK3; 10 µM 0 | PAK4; 10 µM 0 | PBK; 10 µM 0 | PDGFRB; 10 µM 0 | PDK1; 10 µM 0 | PDPK1; 10 µM 0 | PIK4CA; 10 µM 0 | PIK4CB; 10 µM 0 | PLK1; 10 µM 0 | PRKAA1; 10 µM 0 | PRKCA; 10 µM 0 | PTK2; 10 µM 0 | PTK2B; 10 µM 0 | RAF1; 10 µM 0 | [1]; 10 µM 0

O=C(O)c1ccc(Nc2ncc3c(n2)-c2ccc(Cl)cc2C(c2c(F)cccc2F)=NC3)cc1
inactive: MAPK1; 10 µM 0 | MAPK4; 10 µM 0 | MAPKAPK2; 10 µM 0 | MKNK1; 10 µM 0 | NTRK2; 10 µM 0 | NTRK3; 10 µM 0 | PAK4; 10 µM 0 | PBK; 10 µM 0 | PDGFRB; 10 µM 0 | PDK1; 10 µM 0 | PDPK1; 10 µM 0 | PIK4CA; 10 µM 0 | PIK4CB; 10 µM 0 | PLK1; 10 µM 0 | PRKAA1; 10 µM 0 | PRKCA; 10 µM 0 | PTK2; 10 µM 0 | PTK2B; 10 µM 0 | RAF1; 10 µM 0 | [1]; 10 µM 0

COc1cc(N2CCN(C)CC2)ccc1Nc1nccc(-c2cn(C)c3cnccc23)n1
inactive: MAPK1; 10 µM 0 | MAPK4; 10 µM 0 | MAPKAPK2; 10 µM 0 | MKNK1; 10 µM 0 | NTRK2; 10 µM 0 | NTRK3; 10 µM 0 | PAK4; 10 µM 0 | PBK; 10 µM 0 | PDGFRB; 10 µM 0 | PDK1; 10 µM 0 | PDPK1; 10 µM 0 | PIK4CA; 10 µM 0 | PIK4CB; 10 µM 0 | PLK1; 10 µM 0 | PRKAA1; 10 µM 0 | PRKCA; 10 µM 0 | PTK2; 10 µM 0 | PTK2B; 10 µM 0 | RAF1; 10 µM 0 | [1]; 10 µM 0

Among those listed so far, these contain an aryl methoxy group:
COc1ccc(CNC(=O)Nc2ncc([N+](=O)[O-])s2)cc1
inactive: MAPK1; 2.5 µM 0 | MAPK4; 2.5 µM 0 | MAPKAPK2; 2.5 µM 0 | MKNK1; 2.5 µM 0 | NTRK2; 2.5 µM 0 | NTRK3; 2.5 µM 0 | PAK4; 2.5 µM 0 | PBK; 2.5 µM 0 | PDGFRB; 2.5 µM 0 | PDK1; 2.5 µM 0 | PDPK1; 2.5 µM 0 | PIK4CA; 2.5 µM 0 | PIK4CB; 2.5 µM 0 | PLK1; 2.5 µM 0 | PRKAA1; 2.5 µM 0 | PRKCA; 2.5 µM 0 | PTK2; 2.5 µM 0 | PTK2B; 2.5 µM 0 | RAF1; 2.5 µM 0 | [1]; 2.5 µM 0

COc1cc(N2CCN(C)CC2)ccc1Nc1nccc(-c2cn(C)c3cnccc23)n1
inactive: MAPK1; 10 µM 0 | MAPK4; 10 µM 0 | MAPKAPK2; 10 µM 0 | MKNK1; 10 µM 0 | NTRK2; 10 µM 0 | NTRK3; 10 µM 0 | PAK4; 10 µM 0 | PBK; 10 µM 0 | PDGFRB; 10 µM 0 | PDK1; 10 µM 0 | PDPK1; 10 µM 0 | PIK4CA; 10 µM 0 | PIK4CB; 10 µM 0 | PLK1; 10 µM 0 | PRKAA1; 10 µM 0 | PRKCA; 10 µM 0 | PTK2; 10 µM 0 | PTK2B; 10 µM 0 | RAF1; 10 µM 0 | [1]; 10 µM 0

Remaining list, next part.

COc1nccc(-c2c(-c3ccc(F)cc3)ncn2C2CCNCC2)n1
inactive: MAPK1; 10 µM 0 | MAPK4; 10 µM 0 | MAPKAPK2; 10 µM 0 | MKNK1; 10 µM 0 | NTRK2; 10 µM 0 | NTRK3; 10 µM 0 | PAK4; 10 µM 0 | PBK; 10 µM 0 | PDGFRB; 10 µM 0 | PDK1; 10 µM 0 | PDPK1; 10 µM 0 | PIK4CA; 10 µM 0 | PIK4CB; 10 µM 0 | PLK1; 10 µM 0 | PRKAA1; 10 µM 0 | PRKCA; 10 µM 0 | PTK2; 10 µM 0 | PTK2B; 10 µM 0 | RAF1; 10 µM 0 | [1]; 10 µM 0

COc1cc(N2CCC(N3CCN(C)CC3)CC2)ccc1Nc1ncc(Cl)c(Nc2ccccc2S(=O)(=O)C(C)C)n1
inactive: MAPK1; 2.5 µM 0 | MAPK4; 2.5 µM 0 | MAPKAPK2; 2.5 µM 0 | MKNK1; 2.5 µM 0 | NTRK2; 2.5 µM 0 | NTRK3; 2.5 µM 0 | PAK4; 2.5 µM 0 | PBK; 2.5 µM 0 | PDGFRB; 2.5 µM 0 | PDK1; 2.5 µM 0 | PDPK1; 2.5 µM 0 | PIK4CA; 2.5 µM 0 | PIK4CB; 2.5 µM 0 | PLK1; 2.5 µM 0 | PRKAA1; 2.5 µM 0 | PRKCA; 2.5 µM 0 | PTK2; 2.5 µM 0 | PTK2B; 2.5 µM 0 | RAF1; 2.5 µM 0 | [1]; 2.5 µM 0

Cc1ccc(Nc2nccc(N(C)c3ccc4c(C)n(C)nc4c3)n2)cc1S(N)(=O)=O [Pazopanib (Hydrochloride)]
inactive: MAPK1; 10 µM 0 | MAPK4; 10 µM 0 | MAPKAPK2; 10 µM 0 | MKNK1; 10 µM 0 | NTRK2; 10 µM 0 | NTRK3; 10 µM 0 | PAK4; 10 µM 0 | PBK; 10 µM 0 | PDGFRB; 10 µM 0 | PDK1; 10 µM 0 | PDPK1; 10 µM 0 | PIK4CA; 10 µM 0 | PIK4CB; 10 µM 0 | PLK1; 10 µM 0 | PRKAA1; 10 µM 0 | PRKCA; 10 µM 0 | PTK2; 10 µM 0 | PTK2B; 10 µM 0 | RAF1; 10 µM 0 | [1]; 10 µM 0

CCc1cc2c(cc1-c1cnn(CC(=O)N(C)C)c1)C(C)(C)c1[nH]c3cc(C#N)ccc3c1C2=O
inactive: MAPK1; 2.5 µM 0 | MAPK4; 2.5 µM 0 | MAPKAPK2; 2.5 µM 0 | MKNK1; 2.5 µM 0 | NTRK2; 2.5 µM 0 | NTRK3; 2.5 µM 0 | PAK4; 2.5 µM 0 | PBK; 2.5 µM 0 | PDGFRB; 2.5 µM 0 | PDK1; 2.5 µM 0 | PDPK1; 2.5 µM 0 | PIK4CA; 2.5 µM 0 | PIK4CB; 2.5 µM 0 | PLK1; 2.5 µM 0 | PRKAA1; 2.5 µM 0 | PRKCA; 2.5 µM 0 | PTK2; 2.5 µM 0 | PTK2B; 2.5 µM 0 | RAF1; 2.5 µM 0 | [1]; 2.5 µM 0
